{"source": "patent US12016358B2", "about": "“Composition comprising taste modulation compounds, their use and foodstuff comprising them” (V. MANE FILS, priority 2015, dated 2024)", "system": "Saltiness and Salivation (cheese sauce)", "experiment": "Various levels of pantolactone (D-isomer) in cheese sauce, expert tasters", "format": "in vivo, human", "excerpt": "Five expert tasters consumed the Control and then samples comprising various levels of pantolactone (D-isomer). It was concluded that pantolactone (D-isomer) is clean tasting up to 10-12 ppm in cheese sauce.", "data": [{"smiles": "CC1(C)COC(=O)C1O", "note": "(single isomer, unassigned) [pantolactone (D-isomer)]", "values": [{"measurement": "bitterness / off-flavour (footnote to saltiness score)", "setting": "cheese sauce, 27 ppm", "value": "** Becomes bitter with no off-flavour."}, {"measurement": "bitterness / off-flavour of the cheese sauce", "setting": "cheese sauce, above 10 to 12 ppm", "value": "increases the bitterness of the cheese sauce, but it still does not exhibit an off-flavour"}, {"measurement": "concentration up to which clean tasting", "setting": "in cheese sauce", "value": "10-12 ppm"}, {"measurement": "own taste within the range of sodium enhancement", "setting": "in vivo", "value": "neutral tasting"}]}]}
